Measurements as given in PMC12281688.
No constants are given. Whether binding was seen depends on the method and setting. In cells and extracts the contact can be indirect. Some binding calls cover weakened binding; strength is not graded here.

Sequences of proteins named here, by UniProt entry; tags and fusion partners are left off. Residues count along the entry.
UniProt Q92633: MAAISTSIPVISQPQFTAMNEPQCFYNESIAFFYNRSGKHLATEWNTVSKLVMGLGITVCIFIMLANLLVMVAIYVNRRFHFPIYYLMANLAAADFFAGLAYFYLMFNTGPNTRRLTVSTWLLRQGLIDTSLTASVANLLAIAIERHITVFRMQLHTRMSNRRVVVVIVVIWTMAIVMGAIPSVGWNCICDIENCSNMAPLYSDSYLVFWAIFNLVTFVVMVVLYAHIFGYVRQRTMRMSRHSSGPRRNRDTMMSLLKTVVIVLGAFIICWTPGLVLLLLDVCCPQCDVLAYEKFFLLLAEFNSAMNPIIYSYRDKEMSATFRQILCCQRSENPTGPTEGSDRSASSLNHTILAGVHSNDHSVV
UniProt P26038: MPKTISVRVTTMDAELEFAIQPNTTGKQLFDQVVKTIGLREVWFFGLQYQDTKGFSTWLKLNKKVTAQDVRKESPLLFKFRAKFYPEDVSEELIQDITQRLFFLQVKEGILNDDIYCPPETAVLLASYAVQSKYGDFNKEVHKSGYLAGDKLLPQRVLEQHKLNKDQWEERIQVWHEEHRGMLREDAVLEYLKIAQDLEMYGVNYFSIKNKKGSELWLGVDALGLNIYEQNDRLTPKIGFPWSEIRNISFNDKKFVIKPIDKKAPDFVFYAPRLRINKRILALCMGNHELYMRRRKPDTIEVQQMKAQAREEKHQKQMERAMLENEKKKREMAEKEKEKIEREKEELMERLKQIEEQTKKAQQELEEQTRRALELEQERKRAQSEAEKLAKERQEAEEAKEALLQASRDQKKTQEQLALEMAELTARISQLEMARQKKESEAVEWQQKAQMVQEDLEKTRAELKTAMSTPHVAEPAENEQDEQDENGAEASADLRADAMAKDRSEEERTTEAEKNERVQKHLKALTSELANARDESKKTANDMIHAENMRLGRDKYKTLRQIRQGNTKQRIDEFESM
UniProt P05231, residues 30-212: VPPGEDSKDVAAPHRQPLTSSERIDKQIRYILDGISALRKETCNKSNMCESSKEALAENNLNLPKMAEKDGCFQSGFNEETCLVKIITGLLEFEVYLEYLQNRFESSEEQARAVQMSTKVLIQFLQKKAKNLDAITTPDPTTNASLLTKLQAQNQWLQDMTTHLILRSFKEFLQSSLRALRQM
UniProt P40763: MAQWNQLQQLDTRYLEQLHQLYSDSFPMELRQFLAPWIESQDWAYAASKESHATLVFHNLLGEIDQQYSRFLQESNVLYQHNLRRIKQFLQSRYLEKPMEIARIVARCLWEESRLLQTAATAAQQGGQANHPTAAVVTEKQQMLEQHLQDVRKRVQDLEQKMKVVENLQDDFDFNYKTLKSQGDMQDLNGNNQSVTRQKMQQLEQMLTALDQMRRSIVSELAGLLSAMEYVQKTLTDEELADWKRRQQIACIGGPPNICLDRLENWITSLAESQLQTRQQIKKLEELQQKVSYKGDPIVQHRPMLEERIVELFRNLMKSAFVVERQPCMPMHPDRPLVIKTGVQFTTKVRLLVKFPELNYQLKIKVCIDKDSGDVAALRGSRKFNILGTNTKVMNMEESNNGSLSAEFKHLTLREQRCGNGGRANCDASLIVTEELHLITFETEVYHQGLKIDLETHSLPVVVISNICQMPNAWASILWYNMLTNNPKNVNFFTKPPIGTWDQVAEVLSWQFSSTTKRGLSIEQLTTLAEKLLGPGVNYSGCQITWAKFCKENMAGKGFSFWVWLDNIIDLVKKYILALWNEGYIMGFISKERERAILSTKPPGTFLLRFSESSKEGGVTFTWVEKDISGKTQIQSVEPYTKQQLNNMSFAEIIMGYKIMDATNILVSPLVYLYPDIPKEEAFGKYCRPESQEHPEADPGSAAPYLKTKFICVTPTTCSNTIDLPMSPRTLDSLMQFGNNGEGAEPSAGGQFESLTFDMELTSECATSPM

Experiments:
[1] = target: lysophosphatidic acid receptor 1 (human (endogenous in MDA-MB-231)) (UniProt Q92633); experiment: co-IP; MDA-MB-231 cell lysate, 500 ug protein with 1 ug primary antibody (anti-LPAR1, anti-IL-6 or anti-IgG) at 4 °C for 4 h, protein G-agarose overnight, washed with PBS, Western blot
[2] = target: moesin (human (endogenous in MDA-MB-231)) (UniProt P26038); experiment: co-IP; MDA-MB-231 and MDA-MB-468/MSN cell lysates, 500 ug protein with 1 ug primary antibody (anti-MSN, anti-STAT3 or anti-IgG) at 4 °C for 4 h, protein G-agarose overnight, washed with PBS, Western blot
[3] = target: moesin, overexpressed from lentiviral vector Lv105 (MDA-MB-468/MSN cells) (human) (UniProt P26038); experiment: as above

With “interleukin 6 (from UniProt P05231 30-212) (ligand)” the binding [1] was “binds”.
In the case of “signal transducer and transcription activator 3 (from UniProt P40763 1-770)”, the binding [2] is reported as “binds” and the binding [3] is reported as “binds”.
